The record followed here is PMC7244744, “Vesicular transport mediates the uptake of cytoplasmic proteins into mitochondria in Drosophila melanogaster” (Nature Communications, 2020).

Results are given in words; binding and its absence hold for the method and conditions named. Binding seen in cells or lysates may run through a third protein. Binding calls can cover weak binding; strength is not graded here.

The target in test [1] is T1, Dosmit (downsizing mitochondria), endogenous in S2 cells (Drosophila melanogaster (endogenous in S2 cells)) (UniProt Q9VAM6).
T1 sequence: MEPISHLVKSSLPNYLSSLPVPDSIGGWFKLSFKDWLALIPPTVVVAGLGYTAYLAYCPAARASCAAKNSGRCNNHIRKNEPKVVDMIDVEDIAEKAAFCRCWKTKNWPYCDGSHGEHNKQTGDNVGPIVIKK
Put plainly: co-IP; lysate of S2 cells transfected with Rab32-HA or Hsc70-5-HA; immunoprecipitation of endogenous Dosmit with anti-Dosmit antibody and protein G Mag Sepharose beads, 4 °C; lysis buffer 50 mM Tris-HCl pH 8.0, 100 mM NaCl, 5 mM EDTA, 0.5% Nonidet P-40; blot for HA.

Test [2] has as its target Rab32-HA (Drosophila melanogaster). Briefly: co-IP; lysate of S2 cells transfected with Rab32-HA or Hsc70-5-HA; immunoprecipitation with anti-HA antibody and protein G Mag Sepharose beads, 4 °C; lysis buffer 50 mM Tris-HCl pH 8.0, 100 mM NaCl, 5 mM EDTA, 0.5% Nonidet P-40; blot for endogenous Dosmit.

For the molecule Rab32-HA (Drosophila melanogaster), in test [1], the binding result is “binds”.

B1: Dosmit (downsizing mitochondria), endogenous in fly flight muscle (natural protein, UniProt Q9VAM6 1-133, looked up)
chain: T1 sequence
notes: endogenous protein of flight muscle; Seen as monomer and dimer (Dosmit*) bands on western blots; the dimer band is reduced to the monomer by DTT; also called Dosmit* (dimer form); CG1458; source: endogenous, flight-muscle tissue homogenate of wild-type flies (mitochondrial fraction)
On to B1, for which the binding entry in test [2] is “binds”.
